The target in test [1] is T1, His-GRIP-PDZ6 (UniProt P97879 672-754).
T1 construct: domain: PDZ 6; also called GRIP fragment containing only the PDZ 6 domain; PDZ domain 6 of GRIP; not shown: His tag
T1 sequence (looked up): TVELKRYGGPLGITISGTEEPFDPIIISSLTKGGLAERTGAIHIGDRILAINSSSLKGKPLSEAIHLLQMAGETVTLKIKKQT
Briefly: summary of the displacement assay with His-GRIP-PDZ6.

Test [2] concerns the target T1, His-GRIP-PDZ6. Briefly: displacement of labeled EphB2 from GRIP PDZ6 fragment.

Results are given in words; binding and its absence hold for the method and conditions named. Some entries that bind do so weakly or less than the wild type.

Data on 1 molecule can be found in patent US20040241754A1, “Modulating neuronal plasticity” (The Salk Institute for Biological Studies, priority 2003, published 2004).

B1: GluR2 carboxy terminal peptide (peptide)
peptide: NVYGIESVKI
notes: also called GluR2ct; R2ct
Take B1: the binding entry in test [1] and in test [2] was “binds” throughout.
